These are yes or no findings as the source states them, for the method shown. Some results given as binding are weak or reduced against the parent protein; the word gives no strength.
Target: APOBEC3G F126A-W127A (NTD mutant) (human) (UniProt Q9HC16)
Assay: AFM imaging; 70 nM A3G incubated 10 min with linearized m13 ssDNA in 10 mM Tris, 2.5 mM NaCl; deposited on APTES coated mica, imaged in liquid; monomers per cluster on ssDNA from cluster volume; both purified

By UniProt entry, the sequences of proteins in these tests, tags left out. Where a name states a change or a piece, a line headed by the entry shows the natural chain unless it says otherwise.
UniProt Q9HC16: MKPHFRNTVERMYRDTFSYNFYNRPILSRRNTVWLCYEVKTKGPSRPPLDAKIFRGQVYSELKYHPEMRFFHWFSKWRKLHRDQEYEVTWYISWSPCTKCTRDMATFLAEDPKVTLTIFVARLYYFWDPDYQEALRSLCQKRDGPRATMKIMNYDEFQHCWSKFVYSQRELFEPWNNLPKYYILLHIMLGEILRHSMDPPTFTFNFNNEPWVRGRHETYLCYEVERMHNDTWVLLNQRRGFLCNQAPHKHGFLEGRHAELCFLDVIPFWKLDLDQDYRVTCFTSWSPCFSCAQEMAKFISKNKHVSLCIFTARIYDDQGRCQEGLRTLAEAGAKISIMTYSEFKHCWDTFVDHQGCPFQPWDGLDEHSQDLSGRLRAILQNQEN

APOBEC3G F126A-W127A (NTD mutant) (from UniProt Q9HC16 1-384) (enzyme)
binding: binds weakly
